# According to PubChem BioAssay AID2685 (National Center for Advancing Translational Sciences (NCATS), 2010):
# Some of the results follow. Further columns of the screen follow, without active or inactive calls. Most of these compounds were active or inconclusive in the main read-out, so they are no random draw. Words in brackets tell the shape of the fitted curve; partial curves, single points and poor fits give uncertain potencies.
# Assay: qHTS Assay for Lipid Storage Modulators in Drosophila S3 Cells;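 for cell number change: cells counted by Cell Tracker Red CMTPX staining in the red channel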
# Conditions: BODIPY lipid droplet fluorescence, 18-24 h; for cell number change: measured here: cell count max response, cells fed with added oleic acid
# How it was run: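 Laser-scanning cytometry quantifies lipid droplet accumulation (500–530 nm total intensity; droplet/cell object ratio) in oleic acid-fed (400 uM added) Drosophila S3 cells treated with a concentration series. 20 uM Triacsin C defined 100% inhibition.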
# [1] = measured here: cell number channel AC50, cells fed with added oleic acid
# [2] = measured here: lipid fluorescence (Fed channel) AC50, cells fed with added oleic acid
Structure (SMILES),cell number change [%],AC50 [1],AC50 [2]
CC(Sc1nc2ncc(Cl)cc2[nH]1)C(=O)c1c(N)n(C)c(=O)n(C)c1=O (centres undefined),33,"0.366 µM [rising, full curve, poor fit]",
COc1cccc(C2C=C(c3ccc(OC)cc3OC)Nc3nnnn32)c1 (centres undefined),-16.5,,"0.103 µM [rising, full curve, poor fit]"
O=C(O)C1CCCCN1S(=O)(=O)c1ccc(Cl)s1 (centres undefined),-36.1,"29.1 µM [falling, single point]","8.2 µM [falling, partial curve, poor fit]"
O=C1/C(=C\c2ccc(Br)o2)SC(=Nc2ccccc2)N1c1ccccc1,-36.9,"9.2 µM [falling, partial curve]","29.1 µM [falling, single point]"
Cc1ccc(OCCCSc2n[nH]c(N)n2)cc1,22.2,,"23.1 µM [rising, partial curve, poor fit]"
COc1ccc(C(=O)N2CCCCCC2)cc1OC1CCN(C(C)=O)CC1,-24.3,,"11.6 µM [falling, single point]"
COc1ccc(NC(=O)/C=C/C(=O)O)c([N+](=O)[O-])c1,30.3,"29.1 µM [rising, single point]","4.61 µM [rising, partial curve, poor fit]"
C/C(=N\Nc1ccc(C#N)cc1[N+](=O)[O-])c1ccc(C)o1,8,"6.51 µM [falling, single point]",
N#Cc1c(NC(=O)CSc2ccccn2)oc(-c2ccccc2)c1-c1ccccc1,44.1,"6.51 µM [rising, full curve]","8.2 µM [rising, partial curve]"
Nc1ccc(-c2nc3c(ccc4ccccc43)[nH]2)cc1,-47.2,"20.6 µM [falling, single point]","29.1 µM [falling, single point]"
O=C(CCC(=O)c1ccccc1)NCc1ccccc1,,"6.51 µM [falling, single point]","6.51 µM [falling, single point]"
CCOc1cc(N2CCOCC2)c(OCC)cc1NC(=O)CN1C(=O)NC2(CCCCCCC2)C1=O,-43.1,,
Cc1ccc(-n2nc3c(c2NC(=O)CCC2CCCCC2)CS(=O)C3)cc1 (centres undefined),2.58,,"0.461 µM [rising, full curve]"
COc1ccc(S(=O)(=O)c2c(O)c3ccc(C(=O)Nc4ccccc4F)cc3[nH]c2=O)cc1,-21.6,,"3.66 µM [falling, single point]"
COc1ccc(C2(C)ON(c3ccccc3C(F)(F)F)C2=O)cc1 (centres undefined),-82.7,"18.4 µM [falling, single point]",

# Arranged by count of non-hydrogen atoms (falling): 3 of the compounds above.
Structure (SMILES),cell number change [%],AC50 [1],AC50 [2]
COc1ccc(S(=O)(=O)c2c(O)c3ccc(C(=O)Nc4ccccc4F)cc3[nH]c2=O)cc1,-21.6,,"3.66 µM [falling, single point]"
COc1ccc(C2(C)ON(c3ccccc3C(F)(F)F)C2=O)cc1 (centres undefined),-82.7,"18.4 µM [falling, single point]",
O=C(O)C1CCCCN1S(=O)(=O)c1ccc(Cl)s1 (centres undefined),-36.1,"29.1 µM [falling, single point]","8.2 µM [falling, partial curve, poor fit]"
